This note sets out measurements from PMC5996148.

Chains of the proteins cited; added tags and fusions are not shown. Lines headed by an entry give the natural chain unless they say otherwise; changes in a name come on top.
UniProt P49773: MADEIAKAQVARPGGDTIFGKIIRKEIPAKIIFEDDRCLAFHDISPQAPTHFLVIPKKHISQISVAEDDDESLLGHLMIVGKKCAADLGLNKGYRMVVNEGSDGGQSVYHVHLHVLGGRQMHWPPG

Test systems include HBG1 (human); HBG2 (human); HBZ (human); HCCS (human); HCG3 (human); HCRTR2 (human); HDHD2 (human); HDHD3 (human); HEBP1 (human); HEL308 (human); HERPUD1 (human); HERV-FRD (human); HEY1 (human); HFE (human); HGS (human); HIATL2 (human); HIP1 (human); HIP2 (human); HIPK4 (human).
Common to all, as to assay: protein microarray (ProtoArray v5.0), streptavidin-Alexa Fluor 647
Common to all, as to details: 3'-biotin; 20 mM Tris (pH 7.5), 5 mM MgCl2, 100 mM KCl, 0.1% Tween-20, A/T-rich and random oligonucleotide blockers; temperature not stated; high values mean tight binding

The target of the next assay is HINT1 (UniProt P49773).

Several values for one entry are separate records, joined by “and”; a condition that tells them apart may be missing. Equal entries are not always repeated. This is one part of the list. For some assays here: The exact form of the protein is not confirmed.

As to “GGGAGGCTGAGGCAGG [G4-1 biotinylated (PQS2)]”, the binding signal with HBG1 (human) is -0.377 z-score and -0.337 z-score; in the assay on HBG2 (human), -0.337 z-score; with HBZ (human) it was -0.36 z-score; with HCCS (human), -0.336 z-score; with HCG3 (human), -0.355 z-score; in the assay with HCRTR2 (human), -0.283 z-score. Besides, the binding signal in the assay with HDHD2 (human) is -0.25 z-score; in the assay on HDHD3 (human) it was -0.34 z-score; in the assay on HEBP1 (human) it was -0.34 z-score; with HEL308 (human) it was -0.351 z-score; in the assay on HERPUD1 (human), -0.332 z-score and -0.259 z-score; in the assay on HERV-FRD (human) it was -0.283 z-score. For the same sequence, the binding signal with HEY1 (human) is -0.309 z-score; in the assay on HFE (human), -0.342 z-score; with HGS (human), -0.335 z-score; in the assay with HIATL2 (human), -0.3 z-score; in the assay with HINT1, -0.326 z-score; with HIP1 (human), -0.35 z-score. Further, the binding signal with HIP2 (human) was -0.322 z-score; with HIPK4 (human), -0.253 z-score.
